## Primary screen of a compound library

Data taken from ChEMBL document CHEMBL3988442, “University of Dundee, Small-Polar-MMV Screening Library” (2021).

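Viability assay of Plasmodium falciparum sporozoites; the read-out is not stated. The concentration is filed as 10 mM, unlikely as a test dose, so the dose is not known. Direction is inferred from retests: higher values go with lower viability. Strong results were mostly tested again. About 34,000 compounds were tested under these conditions; 0.84% (about 280) showed 50% or more at least once.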

The filed quantity is “Percent Effect” (%).
The record does not define 0% and 100%; most values in the screen are far below 50% and negative numbers occur (in some assays of this library far below -100).
Compounds were drawn at random from those tested, without regard to their results.
Two or more numbers in one place are separate tests of the same structure; such repeats can differ widely.

| # | Compound | Percent Effect |
|---|---|---|
| 1 | `CCc1nccn1-c1cncc(C2CCCN2Cc2ccc(F)cc2)n1` (stereo not drawn) | 12.01% |
| 2 | `CCN(CC1CCCO1)C(=O)Nc1cccc(Cl)c1OC` (stereo not drawn) | 13.27% |
| 3 | `COC(=O)COc1cccc(NS(=O)(=O)c2cc(C(=O)O)cs2)c1` | 20.93% & -21.57% & -25.56% |
| 4 | `Cc1ccccc1C(=O)Nc1cnn(CC(=O)NC2CCCC2)c1` | 1.964% |
| 5 | `O=C(O)c1ccn(-c2ccccc2NS(=O)(=O)c2cccc(Cl)c2F)n1` | -4.167% |
| 6 | `CCn1cc(CN2CCCN(C(=O)c3ccccc3OC)CC2)cn1` | 5.544% |
| 7 | `O=C1COc2cc(S(=O)(=O)NCCC3=CCCCC3)c(Br)cc2N1` | -19.53% |
| 8 | `CS(=O)(=O)N[C@@H]1CN(Cc2ccccc2)C[C@H]1O` | -5.897% |
| 9 | `CSc1cccc(CNC(=O)[C@H]2CNC[C@H](C(=O)N3CCOCC3)C2)c1` | -20.15% |
| 10 | `Cc1nc(C(=O)N2CC[C@@]3(C[C@H](NS(C)(=O)=O)CCO3)C2)cs1` | -17.96% |
| 11 | `Cc1nc(CN(C)C2CCN(CCc3ccccn3)C2)no1` (stereo not drawn) | 7.833% |
| 12 | `O=C(NCc1ccco1)C1CCCN1Cc1nc(-c2ccco2)no1` (stereo not drawn) | 1.587% & 18.23% & 22.91% |
| 13 | `COc1ccc(C(=O)N2CCCC(NC(=O)C(C)C)C2)c(O)c1` (stereo not drawn) | 11.7% |
| 14 | `CCc1cc(CN(C)C(=O)c2cnn[nH]2)on1` | -2.982% |
| 15 | `O=C(CN1CCCS(=O)(=O)CC1)NCc1ccccc1F` | -13.94% |
| 16 | `COCCNC(=O)c1ccc(C)c(-n2cccc2)c1` | -3.044% |
| 17 | `Cc1ccc(C2(CN3CCN(Cc4cncn4C)CC3)CC2)cc1.Cl` | 7.431% |
| 18 | `Cc1cnccc1CN1Cc2ccccc2O[C@]2(CC[C@H](CO)CC2)C1` | 13.72% |
| 19 | `Cc1cnn(CC(C)NCc2nc(-c3cccs3)no2)c1` (stereo not drawn) | 21.45% |
| 20 | `Cc1ccc(CN2CCC3(C2)C(=O)N(CC(C)C)c2ccccc23)s1` (stereo not drawn) | -1.353% |
| 21 | `CC(C)(C)c1cn2nc(N3CCOC(Cn4cncn4)C3)sc2n1` (stereo not drawn) | 8.052% |
| 22 | `Cc1cc(C[C@@H]2CCC[C@H]2NCc2ccccc2C)on1.O=C(O)CC(O)(CC(=O)O)C(=O)O` | 1.339% |
| 23 | `CNC(=O)c1cccc(C2CNCCN2C(C)=O)c1` (stereo not drawn) | 4.858% |
| 24 | `Cc1noc(C)c1-c1nc(C2CCCN(C(=O)CN)C2)ccc1CO` (stereo not drawn) | 0.4439% |
| 25 | `CCNC(=O)[C@@H]1C[C@@H](N)CN1C(=O)CCc1ccc(C)c(C)c1` | 10.39% & 18.69% |
| 26 | `N#CCCNC(=O)CSc1ccc(F)cc1F` | -8.269% |
| 27 | `[H][C@]12C[C@@H](Cn3cncn3)N(C(C)=O)[C@@]1([H])CCN(C(=O)c1ccoc1)C2` | -8.319% |
| 28 | `CCc1nc(CN(C)CC(N)=O)cs1` | 6.474% |
| 29 | `CC(O)CN1CC(C)(C)CN(C(=O)CCc2ccccc2)CC1=O` (stereo not drawn) | 13.62% |
| 30 | `CSCCNC(=O)c1ccc(OC2CCN(CC(C)(C)C)CC2)c(Cl)c1` | 4.844% |
| 31 | `Cc1cnc2c(S(=O)(=O)NC3CCS(=O)(=O)C3)cccc2c1` (stereo not drawn) | 4.937% |
| 32 | `NC(=O)Nc1cccc(C(=O)N(Cc2ccc(F)cc2)C2CC2)c1` | 9.067% & 3.778% |
| 33 | `CCN(Cc1cccc2c1OCO2)C(=O)Nc1ccncc1` | -21.51% |
| 34 | `Cc1ccc(CN(C)C(=O)CN2CCCC(Cn3cncn3)C2)o1` (stereo not drawn) | 0.4432% |
| 35 | `Cc1ccc(-c2nc(CN3CCOC(c4ccccc4)C3)cs2)o1` (stereo not drawn) | -9.529% |
| 36 | `O=C(NCc1ccc(Cl)cc1Cl)NCC1(O)CCSC1` (stereo not drawn) | -14.03% |
| 37 | `[H][C@@]12C[C@@H](O)CN1C[C@@H](Cc1ccccc1)N(CC1CCCCC1)C2` | 10.34% |
| 38 | `O=c1c(CN2CC3CCCN3C[C@@H]2CCO)coc2ccc(Cl)cc12` (stereo partly drawn) | 24.33% & 20.44% & 32.35% |
| 39 | `O=C(NCc1cccc(F)c1)N1CCc2ncnc(NC3CC3)c2CC1` | 2.026% |
| 40 | `CCOc1cc(C)nc(N2CCN(C(=O)c3cscn3)CC2)n1` | -0.6082% |
| 41 | `CO[C@@H]1CCN(C(=O)Cc2cccc(F)c2)[C@H]1Cc1cccnc1.O=C(O)C(F)(F)F` | 1.627% |
| 42 | `[H][C@]12CCN(C(=O)NC)CC[C@@]1([H])S(=O)(=O)N(Cc1cccc(OC)c1)C2` | 5.105% |
| 43 | `Cn1cc(C2(C)CN(c3ncccc3C#N)CCO2)cn1` (stereo not drawn) | -12.11% |
| 44 | `COCCC(=O)N[C@H]1CN(c2nc(C)c3c(n2)CCCC3)C[C@@H]1C1CC1` | 37.56% & 25.17% |
| 45 | `CC(=O)Nc1nc2c(s1)C(C)(C)Nc1ccccc1S2` | 6.012% |
| 46 | `[H][C@@]12C[C@H](C(=O)Nc3cccnc3)[C@@]([H])(CN(C)C1)O2` | -0.08591% |
| 47 | `CC(=O)N1Cc2ccccc2CC1C(=O)Nc1ccc(C)cn1` (stereo not drawn) | -1.312% & 36.2% |
| 48 | `O=C(O)C(F)(F)F.[H][C@]12CCC[C@@]1(COCc1cccnc1)CN(C(=O)c1ccn(C)n1)C2` | -8.787% |
| 49 | `N#Cc1ccc(F)c(CSCCN2CCOCC2)c1` | 5.805% |
| 50 | `O=C(O)C(F)(F)F.O=C(c1ccncc1)N1CCOC2(CCCN(c3nncs3)C2)C1` (stereo not drawn) | 6.83% |
| 51 | `O=c1cc(CN2CCCC2)nc2n1CCCN(Cc1ccsc1)C2` | 1.974% |
| 52 | `Cl.c1nc(CCC2CCCN2)cc(N2CCCCCC2)n1` (stereo not drawn) | 7.851% |
| 53 | `CN(Cc1ccco1)C(=O)C1CSCN1C(=O)c1cccnc1` (stereo not drawn) | -5.949% |
| 54 | `Cc1nnc(CN(C)CC2CCCN2c2cccnn2)o1` (stereo not drawn) | -3.301% |
| 55 | `Cc1nnc(NC(=O)NCc2ccc(N3CCC(C)CC3)nc2)s1` | 5.148% |
| 56 | `COCC(=O)N1CCC([C@@H]2C[C@H](C(F)(F)F)n3nc(C)cc3N2)CC1` | 16.2% |